Results deposited as PubChem BioAssay AID1508597 (Cure First, 2020)
In all, the deposit lists about 2,100 reagents; shown is a random part of them. 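Calls flag viability under 80% in either arm, not effects specific to rucaparib; the reference for percent is not stated.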 Not given: the 100% reference.

Test: 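Knock-downs altering ovarian cancer cell survival with or without PARP inhibitor rucaparib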 (primary screen)
Cell system: human ovarian carcinoma lines grown from tumours: OCI-P5x (papillary serous) and OCI-C5x (clear cell)
Reagent: siRNA pool against human genes, 1.25 pmol siRNA per well
Duration: 72 h or 96 h, depending on the cell culture
Challenge: rucaparib 20 µM (about IC30) or vehicle, present until read-out
Detection: 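ATP luminescence measured at 72 or 96 h according to the culture, then normalised and expressed as percent viability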
Scale: viability, normalised: higher = more viable cells remaining
Rule for the call: 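a well counts as a hit if its normalised viability is under 80 percent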
Meaning of the calls: active = viability under 80%; inactive = viability 80% or more

| target gene | rucaparib or vehicle | cell line | technical replicate | viability, normalised (%) | Outcome |
| --- | --- | --- | --- | --- | --- |
| PDE6C (phosphodiesterase 6C) | Rucaparib | OCI-C5x (clear cell) | 1 | 76.1 | active |
| PDE6C (phosphodiesterase 6C) | Rucaparib | OCI-C5x (clear cell) | 2 | 47.6 | active |
| PDE6C (phosphodiesterase 6C) | Rucaparib | OCI-C5x (clear cell) | 3 | 52.9 | active |
| PDE6C (phosphodiesterase 6C) | Rucaparib | OCI-P5x (serous) | 1 | 36.8 | active |
| PDE6C (phosphodiesterase 6C) | Rucaparib | OCI-P5x (serous) | 2 | 40.1 | active |
| PDE6C (phosphodiesterase 6C) | Rucaparib | OCI-P5x (serous) | 3 | 42 | active |
| PDE6C (phosphodiesterase 6C) | Vehicle | OCI-C5x (clear cell) | 1 | 33.8 | active |
| PDE6C (phosphodiesterase 6C) | Vehicle | OCI-C5x (clear cell) | 2 | 47.6 | active |
| PDE6C (phosphodiesterase 6C) | Vehicle | OCI-C5x (clear cell) | 3 | 33.3 | active |
| PDE6C (phosphodiesterase 6C) | Vehicle | OCI-P5x (serous) | 1 | 62.5 | active |
| PDE6C (phosphodiesterase 6C) | Vehicle | OCI-P5x (serous) | 2 | 61.6 | active |
| PDE6C (phosphodiesterase 6C) | Vehicle | OCI-P5x (serous) | 3 | 46.2 | active |
| PLCB3 (phospholipase C beta 3) | Rucaparib | OCI-C5x (clear cell) | 1 | 45.7 | active |
| PLCB3 (phospholipase C beta 3) | Rucaparib | OCI-C5x (clear cell) | 2 | 31.6 | active |
| PLCB3 (phospholipase C beta 3) | Rucaparib | OCI-C5x (clear cell) | 3 | 33.6 | active |
| PLCB3 (phospholipase C beta 3) | Rucaparib | OCI-P5x (serous) | 1 | 77.6 | active |
| PLCB3 (phospholipase C beta 3) | Rucaparib | OCI-P5x (serous) | 2 | 64.6 | active |
| PLCB3 (phospholipase C beta 3) | Rucaparib | OCI-P5x (serous) | 3 | 61.5 | active |
| PLCB3 (phospholipase C beta 3) | Vehicle | OCI-C5x (clear cell) | 1 | 38 | active |
| PLCB3 (phospholipase C beta 3) | Vehicle | OCI-C5x (clear cell) | 2 | 37.8 | active |
| PLCB3 (phospholipase C beta 3) | Vehicle | OCI-C5x (clear cell) | 3 | 29.8 | active |
| PLCB3 (phospholipase C beta 3) | Vehicle | OCI-P5x (serous) | 1 | 64.8 | active |
| PLCB3 (phospholipase C beta 3) | Vehicle | OCI-P5x (serous) | 2 | 52.3 | active |
| PLCB3 (phospholipase C beta 3) | Vehicle | OCI-P5x (serous) | 3 | 68.8 | active |

Look-ups from the list:
Under “viability, normalised (%)”, PLCB3 (phospholipase C beta 3), rucaparib or vehicle Vehicle, cell line OCI-C5x (clear cell), technical replicate 1 reads 38
For “Outcome”, PDE6C (phosphodiesterase 6C), rucaparib or vehicle Vehicle, cell line OCI-C5x (clear cell), technical replicate 3 has active
Result of PDE6C (phosphodiesterase 6C), rucaparib or vehicle Vehicle, cell line OCI-P5x (serous), technical replicate 3 under “Outcome”: active
PLCB3 (phospholipase C beta 3), rucaparib or vehicle Rucaparib, cell line OCI-C5x (clear cell), technical replicate 2, Outcome = active

Additional records follow:
| target gene | rucaparib or vehicle | cell line | technical replicate | viability, normalised (%) | Outcome |
| --- | --- | --- | --- | --- | --- |
| ACTR6 (actin related protein 6) | Rucaparib | OCI-C5x (clear cell) | 1 | 41.2 | active |
| ACTR6 (actin related protein 6) | Rucaparib | OCI-C5x (clear cell) | 2 | 42.6 | active |
| ACTR6 (actin related protein 6) | Rucaparib | OCI-C5x (clear cell) | 3 | 48.9 | active |
| ACTR6 (actin related protein 6) | Rucaparib | OCI-P5x (serous) | 1 | 82.9 | inactive |
| ACTR6 (actin related protein 6) | Rucaparib | OCI-P5x (serous) | 2 | 81.6 | inactive |
| ACTR6 (actin related protein 6) | Rucaparib | OCI-P5x (serous) | 3 | 78.5 | active |
| ACTR6 (actin related protein 6) | Vehicle | OCI-C5x (clear cell) | 1 | 41.9 | active |
| ACTR6 (actin related protein 6) | Vehicle | OCI-C5x (clear cell) | 2 | 30.3 | active |
| ACTR6 (actin related protein 6) | Vehicle | OCI-C5x (clear cell) | 3 | 40.4 | active |
| ACTR6 (actin related protein 6) | Vehicle | OCI-P5x (serous) | 1 | 49.9 | active |
| ACTR6 (actin related protein 6) | Vehicle | OCI-P5x (serous) | 2 | 53.5 | active |
| ACTR6 (actin related protein 6) | Vehicle | OCI-P5x (serous) | 3 | 59 | active |
| GRK4 (G protein-coupled receptor kinase 4) | Rucaparib | OCI-C5x (clear cell) | 1 | 37.5 | active |
| GRK4 (G protein-coupled receptor kinase 4) | Rucaparib | OCI-C5x (clear cell) | 2 | 42.1 | active |
| GRK4 (G protein-coupled receptor kinase 4) | Rucaparib | OCI-C5x (clear cell) | 3 | 33.6 | active |
| GRK4 (G protein-coupled receptor kinase 4) | Rucaparib | OCI-P5x (serous) | 1 | 93.1 | inactive |
| GRK4 (G protein-coupled receptor kinase 4) | Rucaparib | OCI-P5x (serous) | 2 | 94.6 | inactive |
| GRK4 (G protein-coupled receptor kinase 4) | Rucaparib | OCI-P5x (serous) | 3 | 81.5 | inactive |
| GRK4 (G protein-coupled receptor kinase 4) | Vehicle | OCI-C5x (clear cell) | 1 | 52.4 | active |
| GRK4 (G protein-coupled receptor kinase 4) | Vehicle | OCI-C5x (clear cell) | 2 | 51.8 | active |
| GRK4 (G protein-coupled receptor kinase 4) | Vehicle | OCI-C5x (clear cell) | 3 | 52.4 | active |
| GRK4 (G protein-coupled receptor kinase 4) | Vehicle | OCI-P5x (serous) | 1 | 67.8 | active |
| GRK4 (G protein-coupled receptor kinase 4) | Vehicle | OCI-P5x (serous) | 2 | 50.7 | active |
| GRK4 (G protein-coupled receptor kinase 4) | Vehicle | OCI-P5x (serous) | 3 | 80.6 | inactive |
| KPNA1 (karyopherin subunit alpha 1) | Rucaparib | OCI-C5x (clear cell) | 1 | 62.1 | active |
| KPNA1 (karyopherin subunit alpha 1) | Rucaparib | OCI-C5x (clear cell) | 2 | 78 | active |
| KPNA1 (karyopherin subunit alpha 1) | Rucaparib | OCI-C5x (clear cell) | 3 | 60.6 | active |
| KPNA1 (karyopherin subunit alpha 1) | Rucaparib | OCI-P5x (serous) | 1 | 66.3 | active |
| KPNA1 (karyopherin subunit alpha 1) | Rucaparib | OCI-P5x (serous) | 2 | 74.1 | active |
| KPNA1 (karyopherin subunit alpha 1) | Rucaparib | OCI-P5x (serous) | 3 | 95.5 | inactive |
| KPNA1 (karyopherin subunit alpha 1) | Vehicle | OCI-C5x (clear cell) | 1 | 54.4 | active |
| KPNA1 (karyopherin subunit alpha 1) | Vehicle | OCI-C5x (clear cell) | 2 | 45.9 | active |
| KPNA1 (karyopherin subunit alpha 1) | Vehicle | OCI-C5x (clear cell) | 3 | 39.4 | active |
| KPNA1 (karyopherin subunit alpha 1) | Vehicle | OCI-P5x (serous) | 1 | 99.4 | inactive |
| KPNA1 (karyopherin subunit alpha 1) | Vehicle | OCI-P5x (serous) | 2 | 91.7 | inactive |
| KPNA1 (karyopherin subunit alpha 1) | Vehicle | OCI-P5x (serous) | 3 | 61.1 | active |
